Assay results from PubChem BioAssay AID504834 (National Center for Advancing Translational Sciences (NCATS), 2011).
About 22,000 (6.9%) of roughly 320,000 compounds were called active. Inconclusive means that the source gave no clear call. Such entries were picked first, then a sample of the others. Calls come from the whole dose curve; as a rule, active = well fitted inhibition curve with a large enough effect; inconclusive = small, poorly fitted or top-dose-only effect, or another doubt; inactive = no such curve, though single readings can be large or run the other way. A potency beside an inconclusive call is a rough fit, not a confirmed value.

assay: Primary qHTS for delayed death inhibitors of the malarial parasite plastid, 96 hour incubation; conditions: P. falciparum luciferase reporter growth; series mostly up to 28.7 µM
Procedure, shortened: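 Plates of compound plus infected erythrocytes (2% hematocrit, 0.05% parasitemia final) incubate 96 hours, 37 C, 5% CO2. Detection reagent added; reduced luminescence from the parasites' luciferase reporter flags inhibition.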
Potency is the fitted concentration of half-maximal effect.

| SMILES | Potency |
| --- | --- |
| O=C1c2cccc3cccc(c23)C(=O)N1CCc1ccccc1 | inconclusive: 0.294 µM [inhibitor, partial curve, poor fit] |
| O=C(CCn1cnc2ccccc2c1=O)Nc1ccc2c(c1)OCCO2 | inactive |
| N#CCCn1nc(-c2ccc(Br)cc2)cc1Nc1ccccc1NC(=O)C(F)(F)F | inconclusive: 18.5 µM [inhibitor, single point] |
| C=CCn1c(Cc2c[nH]c3ccccc23)n[nH]c1=S | inactive |
| CCOC(=O)C1NN=C(C(=O)c2ccc(C)cc2)C1c1ccc(C)cc1 (centres undefined) | active: 10.4 µM |
| Cn1c(O)c(/C=N/NC(=O)c2ccncc2)c(=O)n(C)c1=S | inactive |
| CN1CC(=O)N(CC(=O)NCc2ccc(F)cc2)c2ccccc2C1=O | inactive |
| CCS(=O)(=O)N1CCC(C(=O)Oc2ccc(C)c(C)c2)CC1 | inactive |
| CCC(C)c1ccc(NC(=S)NCc2ccccn2)cc1 (centres undefined) | inconclusive: 5.86 µM [inhibitor, partial curve, poor fit] |
| O=c1c2nnn(-c3cccc(F)c3)c2ncn1Cc1ccccn1 | inconclusive: 0.117 µM [inhibitor, full curve, poor fit] |
| COC(=O)CCCC1=CC2=CC(=O)C(C)(OC(=O)c3cccs3)C(=O)C2=CN1Cc1ccc2c(c1)OCO2 (centres undefined) | inconclusive: 18.5 µM [inhibitor, single point] |
| CNCCC(Oc1ccccc1C)c1ccccc1 (centres undefined) | inconclusive: 15.1 µM [inhibitor, partial curve, poor fit] |
| O=C(COc1ccc(Br)cc1)OCCN1CCCCC1 | inconclusive: 14.7 µM [inhibitor, partial curve, poor fit] |
| COc1cccc(NC(=S)/C(=C(\[O-])c2ccc([N+](=O)[O-])cc2)[n+]2ccccc2)c1 | inactive |
| CCCCOc1ccc(C(=O)NCC(=O)NC2CCN(Cc3ccccc3)CC2)cc1 | inconclusive: 16.5 µM [inhibitor, single point] |
| CCOc1ccccc1NC(=O)c1cccc(NC(=O)CC(c2ccccc2)c2ccccc2)c1 | inconclusive: 13.1 µM [inhibitor, single point] |
| CN(C)CCC#CC1(O)c2ccccc2-c2ccccc21 | inactive |
| COc1cccc(C(=O)C2CCCN(C(=O)CCC3=NNC(=O)CC3)C2)c1 (centres undefined) | inactive |
| Cc1ccc(NC(=O)Cn2cnc3sc(C(=O)NCc4ccco4)c(C)c3c2=O)cc1Cl | inactive |
| O=C(CN1CCOCC1)NN=C1CCCCCCCCCCC1 | inactive |
| O=C(OCC(=O)N1CCN(c2ccccc2)CC1)c1ccc(Cl)cc1[N+](=O)[O-] | inactive |
| CC(C)(C)OC(=O)[C@H](Cc1ccccc1)NC(=O)c1nc[nH]c1C(=O)NCC(=O)OCc1ccccc1 | inactive |
| CC1CN(CCOCCOc2ccccc2-c2ccccc2)CC(C)O1 (centres undefined) | inconclusive: 13.1 µM [inhibitor, single point] |

| SMILES | Potency |
| --- | --- |
| O=C(Nc1ccc(Cl)cn1)Nc1ccc(Cl)cn1 | inconclusive: 9.28 µM [inhibitor, single point] |
| COc1ccc(NC(=O)CCC(=O)NCc2ccco2)c([N+](=O)[O-])c1 | inactive |
| Nc1[nH]n(-c2ccccc2)c(=O)c1N=Nc1ccc2c(c1)OCO2 | inactive |
| Cc1ccc(NC(=O)C(=O)NCCN2CCN(C(=O)C(c3ccccc3)c3ccccc3)CC2)cc1 | inconclusive: 4.65 µM [inhibitor, partial curve] |
| CCN(Cc1nc(-c2ccc(OC)c(OC)c2)no1)C(=O)c1ccoc1C | inactive |
| Cc1c(C(=O)N(C)Cc2cccc(F)c2)oc2c(Cl)cccc12 | inconclusive: 9.28 µM [inhibitor, partial curve, poor fit] |
| COc1cc(NS(=O)(=O)c2ccc(NS(=O)(=O)c3ccc(C)cc3)cc2)nc(OC)n1 | active: 1.85 µM |
| Cc1cc(NCCCN2CCOCC2)n2ncc(-c3ccccc3)c2n1 | inconclusive: 10.4 µM [inhibitor, single point] |
| Cc1ccc(C(=O)NCCOC23CC4CC(CC(C4)C2)C3)cc1 | active: 2.08 µM |
| COc1cc(OC)c(NC(=O)CCNS(=O)(=O)c2ccc3c(c2)CC(C)N3C(C)=O)cc1Cl (centres undefined) | inactive |
| COc1ccccc1NC(=O)c1ccccc1C(=O)O | inconclusive: 10.4 µM [inhibitor, partial curve] |
| Cn1c(=O)cc(SCC(=O)N2CCN(c3ccccc3)CC2)c2ccccc21 | inconclusive: 1.31 µM [inhibitor, partial curve, poor fit] |
| O=C(O)/C=C/C(=O)NCCCc1ccccc1 | inconclusive: 11.7 µM [inhibitor, partial curve] |
| N#CCCN(CCN1CCCC1)S(=O)(=O)c1ccc(-c2ccc([N+](=O)[O-])cc2)cc1 | inactive |
| CCc1ccc2[nH]c(=O)c(C(c3nnnn3Cc3ccccc3)N3CCOCC3)cc2c1 (centres undefined) | inactive |
| CCOc1ccc(NC(=O)C2CCN(C(=O)NC3CCCCC3)CC2)cc1 | inconclusive: 18.5 µM [inhibitor, single point] |
| O=C(c1ccco1)N1CCN(C(=O)c2cnn(-c3cccc(F)c3)c2C2CCNCC2)CC1 | inconclusive: 8.28 µM [inhibitor, partial curve] |
| Cc1[nH]c2ccccc2c1C(=O)C(=O)N1CC=C(c2ccccc2)CC1 | inconclusive: 5.86 µM [inhibitor, partial curve, poor fit] |
| Cc1oc2ccc(O)cc2c1C(=O)c1ccc([N+](=O)[O-])cc1 | inactive |
| CCOC(=O)c1ccc(-c2ccc(/C=N/NC(=O)CN(c3cccc(C)c3)S(C)(=O)=O)o2)cc1 | inconclusive: 18.5 µM [inhibitor, single point] |
| O=C(CCC(=O)c1ccc(F)cc1)Nc1cccc(Br)c1 | inactive |
| O=C(O)CCCc1nc(-c2ccc(Cl)cc2)no1 | inconclusive: 18.5 µM [inhibitor, single point] |
| COc1ccc(NS(=O)(=O)c2ccc(C)c(C(=O)NCC(c3ccco3)N3CCCCC3)c2)cc1 (centres undefined) | inconclusive: 18.5 µM [inhibitor, single point] |

A few values from above:
Potency, O=C(O)CCCc1nc(-c2ccc(Cl)cc2)no1 is entered as inconclusive: 18.5 µM [inhibitor, single point]
Potency, CCOc1ccc(NC(=O)C2CCN(C(=O)NC3CCCCC3)CC2)cc1 is entered as inconclusive: 18.5 µM [inhibitor, single point]

Structures above with a thiophene ring, fused or not:

| SMILES | Potency |
| --- | --- |
| COC(=O)CCCC1=CC2=CC(=O)C(C)(OC(=O)c3cccs3)C(=O)C2=CN1Cc1ccc2c(c1)OCO2 (centres undefined) | inconclusive: 18.5 µM [inhibitor, single point] |
| Cc1ccc(NC(=O)Cn2cnc3sc(C(=O)NCc4ccco4)c(C)c3c2=O)cc1Cl | inactive |

Remaining list, next part:

| SMILES | Potency |
| --- | --- |
| Cc1ccc(C)c(NC(=O)CN(C)C(=O)c2cc(S(=O)(=O)N3CCOCC3)ccc2N2CCCC2)c1 | inconclusive: 2.62 µM [inhibitor, full curve] |
| O=C(CN1C(=O)c2ccccc2C1=O)N1CCN(C2c3ccccc3-c3ccccc32)CC1 | inconclusive: 4.15 µM [inhibitor, single point] |
| Cc1ccc(CC(=O)Nc2nccs2)cc1C | inconclusive: 9.28 µM [inhibitor, partial curve] |
| COc1ccc(/C=C(/NC(=O)c2cccc([N+](=O)[O-])c2)C(=O)O)cc1OC | inconclusive: 18.5 µM [inhibitor, single point] |
| CCC1Oc2ccc(C)cc2N(CC(=O)N(Cc2ccc(C)o2)C2CCCC2)C1=O (centres undefined) | inactive |
| CCOc1ccc(CN2CCN(Cc3c(C)nn(CC)c3C)CC2CCO)cc1 (centres undefined) | inactive |
| C=CCn1c(COc2ccc(CC)cc2)nnc1SCC(=O)N(C)C1CCS(=O)(=O)C1 (centres undefined) | inconclusive: 0.185 µM [inhibitor, full curve] |
| COc1cc2c(cc1OC)CN(c1nc(CN3CCOCC3)nc3sc4c(c13)CCC(C)C4)CC2 (centres undefined) | inconclusive: 3.29 µM [inhibitor, partial curve, poor fit] |
| O=C(NCCc1ccccc1)c1ccc(Br)o1 | inactive |
| CC(=O)NC1=NN(C(C)=O)C(C)(c2cccc([N+](=O)[O-])c2)S1 (centres undefined) | inconclusive: 11.7 µM [inhibitor, single point] |
| COCCCNC(=O)CCn1c(=O)c2ccccc2n(CC(=O)NCCc2ccc(OC)c(OC)c2)c1=O | inconclusive: 13.1 µM [inhibitor, partial curve, poor fit] |
| CCOc1ccccc1NC(=O)CNS(=O)(=O)c1ccc2nc(C)sc2c1 | inconclusive: 0.0329 µM [inhibitor, full curve, poor fit] |
| Cc1ccccc1N(Cc1cc(=O)[nH]c2ccccc12)C(=O)CCl | active: 1.85 µM |
| CCc1noc(C)c1C(=O)N1CCCC(CCC(=O)NCc2ccc(F)c(F)c2)C1 (centres undefined) | inconclusive: 18.5 µM [inhibitor, single point] |
| COc1cc(CCN2C(=O)N[C@@H](CCc3ccccc3)C(C(C)=O)=C2C)cc(OC)c1OC | inconclusive: 11.7 µM [inhibitor, single point] |
| O=C(Nc1ccc(OCC(=O)N2CCN(S(=O)(=O)c3ccccc3)CC2)cc1)c1ccco1 | inconclusive: 9.28 µM [inhibitor, partial curve, poor fit] |
| CC(Oc1ccccc1)C(=O)NNC(=O)c1ccccn1 (centres undefined) | inconclusive: 10.4 µM [inhibitor, single point] |
| CCOC(=O)CC(=O)CSc1nc2c(C)c(C)ccc2cc1C | inactive |
| COCc1ccc(C(=O)N2CCCC(CNC(=O)c3ccc(F)cc3)C2)o1 (centres undefined) | inconclusive: 18.5 µM [inhibitor, single point] |
| COC(=O)c1sccc1NC(=O)Nc1ccc(Cl)c(Cl)c1 | inconclusive: 18.5 µM [inhibitor, single point] |
| O=C(NCc1ccco1)C1CCCN1S(=O)(=O)c1ccc2ccccc2c1 (centres undefined) | inconclusive: 18.5 µM [inhibitor, single point] |
| CCN(c1cc(C)cc(C)c1)S(=O)(=O)c1nnc(NC(=O)C(C)C)s1 | inconclusive: 9.28 µM [inhibitor, partial curve] |
| CCCn1c(=O)c2c(nc3n2CC(C)CN3Cc2ccccc2)n(C)c1=O (centres undefined) | inconclusive: 2.62 µM [inhibitor, partial curve, poor fit] |

Fetched one by one from the entries so far (two):

| SMILES | Potency |
| --- | --- |
| Cn1c(O)c(/C=N/NC(=O)c2ccncc2)c(=O)n(C)c1=S | inactive |
| O=C(CCn1cnc2ccccc2c1=O)Nc1ccc2c(c1)OCCO2 | inactive |
